Assay results reported in paper PMC6440744.
Numbering of substitutions follows the chain as printed. No constants are given. Whether binding was seen depends on the method and setting. In cells and extracts the contact can be indirect.

Key:
Experiment in all cases: pull-down; biotinylated His.TEV.Avi PTPRK, PTPRM or chimeric domains on streptavidin-coated magnetic beads; lysate of confluent, pervanadate-treated MCF10A cells, 1.5 hr at 4°C; immunoblot of inputs, supernatants and pull downs; only the target purified
[1] = target: T1, PTPRK ICD-D1057A (substrate-trapping mutant) (human) (UniProt Q15262)
T1 sequence (chain, biotin on the AviTag): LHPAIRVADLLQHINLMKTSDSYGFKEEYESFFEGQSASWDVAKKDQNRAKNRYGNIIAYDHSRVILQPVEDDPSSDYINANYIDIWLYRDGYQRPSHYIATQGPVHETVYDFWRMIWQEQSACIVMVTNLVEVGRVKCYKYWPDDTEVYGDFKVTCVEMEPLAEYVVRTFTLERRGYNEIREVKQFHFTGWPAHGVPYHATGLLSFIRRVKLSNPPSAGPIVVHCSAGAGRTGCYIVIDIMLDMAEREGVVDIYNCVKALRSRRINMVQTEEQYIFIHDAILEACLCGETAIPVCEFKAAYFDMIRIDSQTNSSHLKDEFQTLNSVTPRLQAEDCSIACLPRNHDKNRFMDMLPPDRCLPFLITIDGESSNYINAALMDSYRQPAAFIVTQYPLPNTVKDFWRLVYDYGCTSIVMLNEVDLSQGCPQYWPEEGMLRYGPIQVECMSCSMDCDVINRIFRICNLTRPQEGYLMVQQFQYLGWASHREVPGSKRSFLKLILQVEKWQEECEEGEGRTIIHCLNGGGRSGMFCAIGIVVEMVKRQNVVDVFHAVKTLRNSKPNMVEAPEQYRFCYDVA

[2] = target: T2, PTPRK ICD-C1089S (substrate-trapping mutant) (human) (UniProt Q15262)
T2 sequence (chain, biotin on the AviTag): T1 sequence (chain, biotin on the AviTag) with A194D, C226S

[3] = target: T3, PTPRK D2 pseudophosphatase domain (human) (UniProt Q15262)
T3 sequence (chain, biotin on the AviTag): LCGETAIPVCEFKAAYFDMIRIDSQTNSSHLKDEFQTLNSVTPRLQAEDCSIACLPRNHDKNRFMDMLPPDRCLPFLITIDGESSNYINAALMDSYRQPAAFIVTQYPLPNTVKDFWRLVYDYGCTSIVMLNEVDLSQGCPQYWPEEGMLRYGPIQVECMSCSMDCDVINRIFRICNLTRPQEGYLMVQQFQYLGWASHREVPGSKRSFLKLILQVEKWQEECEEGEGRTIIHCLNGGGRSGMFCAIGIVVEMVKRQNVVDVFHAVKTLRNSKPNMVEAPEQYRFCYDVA

Measured: binding

E-Cadherin (human (endogenous in MCF10A))
no binding: [1] | [2] | [3]
